Measurements reported in PubChem BioAssay AID1259425 (University of Nebraska Medical Center, 2018)
Screen: 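Compare each knockdown with KSR1 silencing using changes in marker transcripts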 (primary screen). Cell system: HCT116 human colon cancer cells. Reagents: siRNA pool against human genes, 50 nM siRNA. Detection: 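mRNA of six signature genes measured together by branched-DNA assay after 50 nM siRNA pool, blank removed, divided by geometric mean of two housekeeping genes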. Scale: BNIP3L mRNA: higher = more BNIP3L transcript after knockdown; NDRG1 mRNA: higher = more NDRG1 transcript after knockdown; BNIP3 mRNA: higher = more BNIP3 transcript after knockdown; ALDOC mRNA: higher = more ALDOC transcript after knockdown.
The whole screen tested about 14,000 reagents; below is a part drawn at random. Further read-outs or replicates are left out here. Not stated in the record: the time to read-out.

gene symbol,"BNIP3L mRNA, set 1","NDRG1 mRNA, set 1","BNIP3 mRNA, set 1","ALDOC mRNA, set 1"
COX4I1 (GeneID 1327),0.0741,0.0723,0.225,0.031
CDKN2A (GeneID 1029),0.0921,0.0977,0.166,0.0123
SLC22A5 (GeneID 6584),0.0931,0.29,0.252,-0.000422
ARHGAP1 (GeneID 392),0.0569,0.821,0.293,0.0315
GBP1 (GeneID 2633),0.114,0.103,0.167,0.0348
APP (GeneID 351),0.1,0.359,0.283,0.0163
CPAMD8 (GeneID 27151),0.174,0.95,0.36,0.0208
PEX16 (GeneID 9409),0.124,0.147,0.289,0.0591
CCT4 (GeneID 10575),0.151,0.104,0.398,0.0213
ACVR1 (GeneID 90),0.124,0.424,0.259,0.0187
PGAP4 (GeneID 84302),0.109,0.216,0.222,0.0199
STRIP1 (GeneID 85369),0.158,0.495,0.38,0.0542
CES2 (GeneID 8824),0.0764,0.127,0.315,0.00737
FGF5 (GeneID 2250),0.0672,0.322,0.275,0.0292
CCDC102B (GeneID 79839),0.129,0.517,0.389,0.0412
TIAM1 (GeneID 7074),0.0584,0.224,0.212,0.0248
CALCRL (GeneID 10203),0.137,0.143,0.304,0.0415
ERAS (GeneID 3266),0.0995,0.19,0.305,0.0213
OLFML3 (GeneID 56944),0.0596,0.333,0.347,0.0236
FRMPD1 (GeneID 22844),0.0932,0.209,0.352,0.0578
MS4A1 (GeneID 931),0.106,0.216,0.251,0.0158
GRIA2 (GeneID 2891),0.0747,0.19,0.238,0.0231
CALHM2 (GeneID 51063),0.231,0.455,0.35,0.0247
AKAP9 (GeneID 10142),0.084,0.105,0.258,0.00984
FAM169A (GeneID 26049),0.168,0.237,0.6,0.0278
FOXO3 (GeneID 2309),0.117,0.652,0.279,0.0192
ZNF331 (GeneID 55422),0.0973,0.188,0.344,0.034
PDF (GeneID 64146),0.112,0.228,0.34,0.0378
ANAPC11 (GeneID 51529),0.153,0.274,0.263,0.127
DRD4 (GeneID 1815),0.0993,0.0518,0.257,0.0169
ARHGEF39 (GeneID 84904),0.127,0.119,0.275,0.0209
ZFYVE28 (GeneID 57732),0.0631,0.126,0.251,0.0212
CYB5R3 (GeneID 1727),0.091,0.188,0.377,0.0316
RPS18 (GeneID 6222),0.0503,0.304,0.472,0.0491
C3orf36 (GeneID 80111),0.1,0.457,0.425,0.0507
LMOD1 (GeneID 25802),0.131,0.165,0.251,0.0138
PPTC7 (GeneID 160760),0.092,0.444,0.263,0.0372
RAB33A (GeneID 9363),0.0975,0.0647,0.226,0.0267
PNN (GeneID 5411),0.0873,0.185,0.304,0.0274
MRPS14 (GeneID 63931),0.112,0.111,0.313,0.0202
SLC12A3 (GeneID 6559),0.0778,0.107,0.282,0.0393
IDH3G (GeneID 3421),0.0992,0.0665,0.33,0.0312
ERGIC1 (GeneID 57222),0.161,0.268,0.42,0.0301
RPL12 (GeneID 6136),0.139,0.587,0.427,0.0162
EPHA6 (GeneID 285220),0.0356,0.266,0.474,0.0107
CD47 (GeneID 961),0.125,0.0787,0.342,0.0158
RCN3 (GeneID 57333),0.162,0.53,0.255,0.032
TUBD1 (GeneID 51174),0.0441,0.0907,0.252,0.00781
SASH3 (GeneID 54440),0.0437,0.306,0.233,0.0362
PRAMEF1 (GeneID 65121),0.0734,0.121,0.243,0.0114
